Reference: paper PMC5094991
No constants are given. Whether binding was seen depends on the method and setting. Binding seen in cells or lysates may run through a third protein. Some entries that bind do so weakly or less than the wild type.

The chains behind the UniProt entries cited, without tags or fusion partners. Residues count along the entry.
UniProt Q03135: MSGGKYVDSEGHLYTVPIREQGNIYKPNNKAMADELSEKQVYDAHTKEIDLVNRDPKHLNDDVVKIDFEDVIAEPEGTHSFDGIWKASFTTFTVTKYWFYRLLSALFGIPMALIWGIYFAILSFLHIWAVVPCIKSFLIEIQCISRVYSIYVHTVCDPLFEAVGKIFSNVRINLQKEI
UniProt Q13586, residues 23-685: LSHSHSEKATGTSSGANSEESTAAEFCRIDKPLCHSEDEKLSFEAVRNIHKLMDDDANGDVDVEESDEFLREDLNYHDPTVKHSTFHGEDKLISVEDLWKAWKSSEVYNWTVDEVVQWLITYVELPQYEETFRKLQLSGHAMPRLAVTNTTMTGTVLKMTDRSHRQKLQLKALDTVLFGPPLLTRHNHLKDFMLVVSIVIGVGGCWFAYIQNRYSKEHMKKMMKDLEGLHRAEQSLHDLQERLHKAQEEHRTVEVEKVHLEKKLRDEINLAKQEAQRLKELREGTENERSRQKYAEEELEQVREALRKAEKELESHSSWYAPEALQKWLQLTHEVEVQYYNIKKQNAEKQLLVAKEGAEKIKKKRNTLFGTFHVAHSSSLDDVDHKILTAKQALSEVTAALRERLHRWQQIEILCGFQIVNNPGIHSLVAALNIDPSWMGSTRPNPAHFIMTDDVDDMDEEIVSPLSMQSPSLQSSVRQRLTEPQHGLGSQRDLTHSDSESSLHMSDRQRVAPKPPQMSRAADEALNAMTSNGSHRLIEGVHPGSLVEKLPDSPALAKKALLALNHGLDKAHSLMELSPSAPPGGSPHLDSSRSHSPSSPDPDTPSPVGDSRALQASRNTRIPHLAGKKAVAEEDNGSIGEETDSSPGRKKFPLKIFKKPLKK
UniProt Q96D31: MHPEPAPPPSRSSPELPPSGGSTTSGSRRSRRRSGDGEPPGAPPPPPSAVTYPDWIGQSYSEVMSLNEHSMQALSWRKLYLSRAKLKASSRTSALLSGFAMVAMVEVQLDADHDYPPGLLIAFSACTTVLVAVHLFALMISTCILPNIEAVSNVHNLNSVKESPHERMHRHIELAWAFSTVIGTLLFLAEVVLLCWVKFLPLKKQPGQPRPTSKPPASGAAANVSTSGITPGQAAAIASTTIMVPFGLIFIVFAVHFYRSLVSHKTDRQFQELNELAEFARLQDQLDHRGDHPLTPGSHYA
UniProt P48995: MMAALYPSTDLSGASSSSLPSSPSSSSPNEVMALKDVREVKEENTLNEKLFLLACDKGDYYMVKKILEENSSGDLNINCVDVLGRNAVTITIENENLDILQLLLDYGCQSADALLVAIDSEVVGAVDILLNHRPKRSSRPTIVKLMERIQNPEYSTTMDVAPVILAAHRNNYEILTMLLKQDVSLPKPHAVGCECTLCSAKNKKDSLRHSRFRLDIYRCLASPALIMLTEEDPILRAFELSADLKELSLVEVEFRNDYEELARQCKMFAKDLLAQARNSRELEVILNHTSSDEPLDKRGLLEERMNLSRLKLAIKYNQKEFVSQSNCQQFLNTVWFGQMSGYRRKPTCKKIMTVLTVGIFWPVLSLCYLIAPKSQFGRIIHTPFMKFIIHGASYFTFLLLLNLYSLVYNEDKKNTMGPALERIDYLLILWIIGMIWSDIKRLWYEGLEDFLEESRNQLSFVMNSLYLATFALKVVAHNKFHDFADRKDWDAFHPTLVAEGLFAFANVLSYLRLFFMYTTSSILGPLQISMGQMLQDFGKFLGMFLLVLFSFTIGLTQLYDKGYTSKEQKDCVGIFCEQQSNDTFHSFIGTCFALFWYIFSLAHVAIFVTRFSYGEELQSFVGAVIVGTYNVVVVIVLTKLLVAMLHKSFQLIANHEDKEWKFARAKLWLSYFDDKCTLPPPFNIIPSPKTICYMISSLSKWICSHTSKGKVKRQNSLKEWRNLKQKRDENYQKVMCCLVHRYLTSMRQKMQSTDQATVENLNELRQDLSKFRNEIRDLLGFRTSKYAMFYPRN

Assays:
[1] = target: caveolin-1 (human (endogenous in HCT-116)) (UniProt Q03135); test: co-IP; IP of caveolin-1 (antibody for the IP not told); 500 ug HCT-116 lysate in NET buffer; cells after Ca2+ store depletion by Tg; immunoblot
[2] = target: caveolin-1 (human (endogenous in HCT-116)) (UniProt Q03135); test: condition: only control conditions, before Ca2+ store depletion by Tg; co-IP; IP of caveolin-1 (antibody for the IP not told); 500 ug HCT-116 lysate in NET buffer; cells in control conditions, before Ca2+ store depletion (no Tg); immunoblot
[3] = target: STIM1 (human (endogenous in HCT-116)) (UniProt Q13586); test: co-IP; IP with anti-STIM1 (sc-68897), protein A-sepharose; 500 ug HCT-116 lysate in NET buffer (50 mM Tris-HCl pH 7.4, 150 mM NaCl, 5 mM EDTA, 0.05% NP-40), overnight at 4 C; cells after Ca2+ store depletion by thapsigargin (Tg); immunoblot
[4] = target: STIM1 (human (endogenous in HCT-116)) (UniProt Q13586); test: condition: only control conditions, before Ca2+ store depletion by Tg; co-IP; IP with anti-STIM1 (sc-68897), protein A-sepharose; 500 ug HCT-116 lysate in NET buffer (50 mM Tris-HCl pH 7.4, 150 mM NaCl, 5 mM EDTA, 0.05% NP-40), overnight at 4 C; cells in control conditions, before Ca2+ store depletion (no Tg); immunoblot

| binding [1] | binding [2] | binding [3] | binding [4] | Substance |
| --- | --- | --- | --- | --- |
| binds | no binding | – | – | Orai1 (from UniProt Q96D31 1-301) |
| – | – | binds | – | caveolin-1 (from UniProt Q03135 1-178) |
| binds | no binding | binds | no binding | TRPC1 (from UniProt P48995 1-793) |
| binds | – | – | – | STIM1 (from UniProt Q13586 23-685) |
